Results are given in words; binding and its absence hold for the method and conditions named. In cells and extracts the contact can be indirect. Some results given as binding are weak or reduced against the parent protein; the word gives no strength.
Target: GST-SH2-Src (UniProt P12931)
Assay: pull-down; immobilised GST fusion proteins incubated with normalized whole cell lysates of PAE cells (unstimulated or stimulated with CSF-1 or VEGF for 10 minutes; also cells co-expressing c-Cbl, Cbl-N or c-Cbl siRNA) by rocking for 3 h at 4°C; beads washed four times; Western blot; only the target purified

binding: binds
Substance: full length VEGFR-2 (non-chimeric) (from UniProt P35918 20-1345) (receptor)

Reference: publication PMC2585478
